According to the supplement of paper PMC7024190:
Structures can show the parent of a compound that is named as a salt. The list shows a part of the results. This data set is noisy: repeats of one test often differ as much as different tests do.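 The cells were human embryonic kidney cells carrying a Renilla luciferase gene, driven by the HSV-TK promoter, on a plasmid put in briefly by transfection. This is the first-round screen of about ten thousand compounds, looking for ones that raise reporter output.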

tested on: HEK 293FT; assay: log relative Renilla luciferase luminescence (reporter expression vs reference, reference not stated) (log (base not stated)); higher = higher recombinant reporter expression; conditions: 10 µM; time after transfection 48 h

Compound | log
COc1cc(OC)c(C(=O)CCCCN2CCC3(CC2)NC(=O)NC3=O)cc1NS(=O)(=O)c1ccc(C(F)(F)F)cc1 | -0.0109
NC(=O)CNCCC(c1ccccc1)c1ccccc1 [N20C hydrochloride] | 0.023
O=c1[nH]ccc2c(S(=O)(=O)N3CCCNCC3)cccc12 [HA 1100 hydrochloride] | -0.141
Oc1ccc(-c2nc3cc(O)cc(Br)c3o2)cc1 | -0.00721
CNCC[C@@H](Oc1ccccc1C)c1ccccc1 [Tomoxetine hydrochloride] | -0.0186
CN1CC2c3ccccc3Oc3ccc(Cl)cc3C2C1 (centres undefined) [Asenapine maleate] | -0.0734
CCOC(=O)c1ncn2c1CN(C)C(=O)c1cc(F)ccc1-2 [Flumazenil] | -0.03
O=C(O)COCCN1CCN(C(c2ccccc2)c2ccc(Cl)cc2)CC1 (centres undefined) [Cetirizine dihydrochloride] | -0.146
COC(=O)C1=C(C)NC(C)=C(C(=O)OCCCN2CCC(c3ccccc3)(c3ccccc3)CC2)[C@@H]1c1cccc([N+](=O)[O-])c1 [(R)-(-)-Niguldipine hydrochloride] | 0.0854
CCCc1c(OCCCOc2ccc(OCC(=O)O)cc2)ccc(C(C)=O)c1O | 0.106
CCCC1O[C@@H]2C[C@H]3[C@@H]4CCC5=CC(=O)C=C[C@]5(C)[C@H]4[C@@H](O)C[C@]3(C)[C@]2(C(=O)CO)O1 (some centres undefined) [Budesonide] | -0.0275
CCCCC/N=c1\ccn(Cc2ccccc2)c2ccccc12 | -0.224
CC(C)NCC(O)c1ccc(NS(C)(=O)=O)cc1 (centres undefined) [Sotalol hydrochloride] | 0.0845
O=C(O)Cc1cccc(OCCCN(Cc2cccc(C(F)(F)F)c2Cl)CC(c2ccccc2)c2ccccc2)c1 [GW 3965 hydrochloride] | 0.00137
CN(C)CCCSc1ccccc1NC(=O)/C=C/c1ccccc1 [Cinanserin hydrochloride] | 0.156
N#Cc1ccc(NCCNCC(=O)N2CCC[C@H]2C#N)nc1 [NVP DPP 728 dihydrochloride] | -0.0536
N=C(N)N/N=C/c1c(Cl)cccc1Cl [Guanabenz acetate] | -0.236
Cn1cc(/C=C2\C(=O)Nc3cccnc32)c2ccccc21 | 0.025
CC1(C)C(=O)NC2=C1C(=O)C(=O)c1ccccc12 | -0.837
Cc1ccc2c(=O)c3ccccc3n(CCCN)c2c1C | -0.721

Compound | log
S=C(S)N1CCCC1 [Pyrrolidinedithiocarbamate ammonium] | -0.165
COc1ccc2[nH]c(I)c(CCNC(C)=O)c2c1 [2-Iodomelatonin] | 0.00954
CS(=O)(=O)CCNCc1nc(-c2ccc3ncnc(Nc4ccc(OCc5cccc(F)c5)c(Cl)c4)c3c2)cs1 | 0.027
CC[N+](CC)(CC)CCOc1ccc(/C=C/c2ccccc2)cc1 | -0.12
OC[C@H]1NC[C@@H](O)[C@@H](O)[C@@H]1O [1-Deoxymannojirimycin hydrochloride] | -0.171
Oc1ccc(-c2nc(-c3ccc(F)cc3)c(-c3ccncc3)[nH]2)cc1 | -0.428
O=C(OCCN1CCOCC1)C1(c2ccccc2)CCCCC1 [PRE-084 hydrochloride] | -0.0131
CCC(CC)(CC(=O)Nc1cccc(/C=C/c2nc(C3CCC3)cs2)c1)C(=O)O [Cinalukast] | -0.165
Cc1cc(C)c(S(=O)(=O)Nc2cccc(C(F)(F)F)c2)c(C)c1 | 0.544
CC(C)SC(=N)N [S-Isopropylisothiourea hydrobromide] | -0.022
Nc1nc(NCC2CCC(CNS(=O)(=O)c3cccc4ccccc34)CC2)nc2ccccc12 (centres undefined) | 0.33
Oc1nc(-c2ccc(C(F)(F)F)cc2)nc2c1CSCC2 | -0.107
CN(Cc1ccccc1)C(=O)[C@H](Cc1ccc2ccccc2c1)NC(=O)[C@@H]1CCCN1C(=O)Nc1ccccc1[N+](=O)[O-] | 0.0863
C/N=C(/NC#N)NCCSCc1csc(NC(=N)N)n1 [Tiotidine] | 0.204
CC(C)(C)n1nc(-c2cccc3ccccc23)c2c(N)ncnc21 [1-Naphthyl PP1] | -0.00962
COc1ccc(Cl)cc1NC(=O)Nc1cc(C)nc2ccccc12 | -0.0206
Nc1nc2c(nc(Br)n2[C@@H]2O[C@@H]3COP(=O)(O)O[C@H]3[C@H]2O)c(=O)[nH]1 [8-Bromo-cGMP, sodium salt] | -0.0288
Cc1ccccc1N1CCN(S(=O)(=O)C[C@]23CC[C@H](C[C@@H]2NC(=O)[C@@H](N)CCS(C)(=O)=O)C3(C)C)CC1 [L-368,899 hydrochloride] | 0.0222
CN[C@H]1CC[C@@H](c2ccc(Cl)c(Cl)c2)c2ccccc21 [Sertraline hydrochloride] | -0.111

A stretch from the list above, as a working copy:
Compound | log
Oc1nc(-c2ccc(C(F)(F)F)cc2)nc2c1CSCC2 | -0.107
CN(Cc1ccccc1)C(=O)[C@H](Cc1ccc2ccccc2c1)NC(=O)[C@@H]1CCCN1C(=O)Nc1ccccc1[N+](=O)[O-] | 0.0863
C/N=C(/NC#N)NCCSCc1csc(NC(=N)N)n1 [Tiotidine] | 0.204
CC(C)(C)n1nc(-c2cccc3ccccc23)c2c(N)ncnc21 [1-Naphthyl PP1] | -0.00962
COc1ccc(Cl)cc1NC(=O)Nc1cc(C)nc2ccccc12 | -0.0206
Nc1nc2c(nc(Br)n2[C@@H]2O[C@@H]3COP(=O)(O)O[C@H]3[C@H]2O)c(=O)[nH]1 [8-Bromo-cGMP, sodium salt] | -0.0288
Cc1ccccc1N1CCN(S(=O)(=O)C[C@]23CC[C@H](C[C@@H]2NC(=O)[C@@H](N)CCS(C)(=O)=O)C3(C)C)CC1 [L-368,899 hydrochloride] | 0.0222
CN[C@H]1CC[C@@H](c2ccc(Cl)c(Cl)c2)c2ccccc21 [Sertraline hydrochloride] | -0.111
